According to patent US20100021895A1, “Vectors for Inducing Homozygous Mutations and Methods of Using Same” (priority 2006, published 2010):
Some entries share one result that the patent states for a list of compounds.

Tested on: mouse embryonic stem cell clones, each containing a neomycin resistance gene (Neo) inserted by the GTR1.3 gene trap retrovirus
Assay: Carcinogen-induced LOH: frequency of colony formation in 2.0 mg/ml G418
Assay type: cell-based
Details: time course, selection in 2.0 mg/ml G418 at various times after treatment (FIG. 14)
Procedure: Carcinogen-induced LOH was measured in a panel of 53 mouse embryonic stem cell clones, each containing a neomycin resistance gene (Neo) inserted into a different cellular gene (FIG. 9) by the GTR1.3 gene trap retrovirus. Gene entrapment by GTR1.3 involves selection for inserted Neo sequences that can splice to the 3′ ends of cellular genes (Lin et al.,). The disrupted genes were identified by sequencing Neo-gene fusion transcripts and were localized on the mouse genome. […] The frequencies of spontaneous LOH measured at the 53 different sites ranged from 1.3×10^−5 to 1.2×10^−4 (Table 3), similar to those reported for other inserted neomycin resistance genes (15, 17) in ES cells and for loci such as TK and APRT in other cell types (12, 13).
A variety of chemical agents were tested for their ability to enhance the frequencies at which mutant cells survive in 2.0 mg/ml G418. […] The optimal concentrations of each agent to stimulate colony formation with minimal toxicity (<5% loss of cell viability) were determined in advance (FIG. 13). […]
Serially diluted cells were plated onto 150 mm plates containing drug-free media and allowed to attach overnight. […] TK gene loss was assessed following selection in media containing 2 μg/ml gancyclovir. […]

NC(=O)NO [HU, hydroxyurea]
share of the total LOH induced within 24 hours of exposure: Over 90%
